# Screening data, single-dose tests

The chains behind the UniProt entries cited, without tags or fusion partners. Residues count along the entry.
UniProt P9WFT3, whole entry: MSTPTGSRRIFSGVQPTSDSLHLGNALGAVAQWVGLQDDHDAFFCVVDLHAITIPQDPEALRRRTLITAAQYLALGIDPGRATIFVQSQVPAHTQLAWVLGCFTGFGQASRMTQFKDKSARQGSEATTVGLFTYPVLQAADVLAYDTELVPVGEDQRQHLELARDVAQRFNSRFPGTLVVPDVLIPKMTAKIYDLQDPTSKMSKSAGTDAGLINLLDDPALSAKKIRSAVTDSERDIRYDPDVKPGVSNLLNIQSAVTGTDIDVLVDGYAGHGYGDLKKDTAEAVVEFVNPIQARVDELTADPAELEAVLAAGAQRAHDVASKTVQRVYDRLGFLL
UniProt Q8IDJ8, 1-583: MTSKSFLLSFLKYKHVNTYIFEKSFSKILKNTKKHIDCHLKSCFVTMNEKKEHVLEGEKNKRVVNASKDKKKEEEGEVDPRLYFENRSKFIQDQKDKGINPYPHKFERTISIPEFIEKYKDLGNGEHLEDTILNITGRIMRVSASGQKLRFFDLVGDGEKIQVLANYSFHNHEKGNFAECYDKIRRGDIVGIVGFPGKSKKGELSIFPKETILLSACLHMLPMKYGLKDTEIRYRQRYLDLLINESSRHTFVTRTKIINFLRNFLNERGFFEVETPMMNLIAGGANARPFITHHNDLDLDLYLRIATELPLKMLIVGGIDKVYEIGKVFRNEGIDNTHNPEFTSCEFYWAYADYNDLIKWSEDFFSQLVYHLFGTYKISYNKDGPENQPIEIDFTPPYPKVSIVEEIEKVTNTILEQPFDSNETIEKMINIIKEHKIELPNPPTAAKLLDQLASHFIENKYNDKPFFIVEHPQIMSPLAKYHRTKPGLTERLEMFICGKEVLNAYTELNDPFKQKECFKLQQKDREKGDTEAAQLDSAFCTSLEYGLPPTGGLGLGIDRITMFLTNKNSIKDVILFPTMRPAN
UniProt P9WPC5, whole entry: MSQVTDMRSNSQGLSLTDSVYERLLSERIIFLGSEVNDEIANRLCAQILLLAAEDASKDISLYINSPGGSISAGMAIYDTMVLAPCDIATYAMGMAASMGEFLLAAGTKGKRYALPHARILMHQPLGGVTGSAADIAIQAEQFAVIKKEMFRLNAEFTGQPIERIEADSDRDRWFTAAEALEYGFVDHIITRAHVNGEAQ
UniProt P9WPC3, whole entry partner: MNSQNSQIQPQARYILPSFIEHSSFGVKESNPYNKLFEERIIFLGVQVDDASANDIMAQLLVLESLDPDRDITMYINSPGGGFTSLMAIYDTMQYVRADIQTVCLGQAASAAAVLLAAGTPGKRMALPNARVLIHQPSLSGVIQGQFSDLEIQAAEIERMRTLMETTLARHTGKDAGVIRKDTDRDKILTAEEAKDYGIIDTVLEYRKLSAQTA

Data taken from ChEMBL document CHEMBL3988442, “University of Dundee, Small-Polar-MMV Screening Library” (2021).

A: 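Tryptophan-tRNA ligase, Mycobacterium tuberculosis (UniProt P9WFT3). Enzyme assay of tryptophanyl-tRNA synthetase; the read-out is not stated. Compounds at 10 µM. Higher most likely means stronger inhibition; the record gives no direction and few retests gave an IC50. Size under these conditions: about 65,000 compounds, about 64 of them at 50% or above in at least one test.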
B: 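Enzyme assay of the cytosolic lysyl-tRNA synthetase in 384-well plates, read by luminescence. Target: Lysine-tRNA ligase, Plasmodium falciparum 3D7 (UniProt Q8IDJ8). Tested at 30 µM. Higher reads as stronger inhibition, judged from the few compounds that gave an IC50. Size under these conditions: about 69,000 compounds, about 49 of them at 50% or above in at least one test.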
C: 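ClpP1P2, Mycobacterium tuberculosis (UniProt P9WPC5 and UniProt P9WPC3). Protease assay of ClpP1P2, read by the AMC dye that it sets free. Compounds at 50 µM. Direction is inferred from only a few compounds that gave an IC50; most scored high, so higher reads as stronger inhibition. Most other retested compounds had strongly negative values. About 69,000 compounds were tested under these conditions; 0.015% (about 10) showed 50% or more at least once.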

Results are given as percent effect. How 0% and 100% were set is not recorded. Most values in the screen are low, and negative values occur. Compounds were drawn at random from those tested, without regard to their results. A dash means the value is not listed here; it may have been measured.

compound | A | B | C
CN1CCN(c2cnn(CCn3cccn3)c(=O)c2)CC1 | -3.488% | -5.16% | 1.023%
CN(C)C(=O)c1cc(-c2ccncc2)[nH]n1 | - | 0.2772% | -11.01%
CCCS(=O)(=O)N1CCN(c2ccc3nnc(CC)n3n2)CC1 | -2.376% | 0.3159% | -3.295%
Cc1csc(CNC(=O)N2CCN(Cc3cc(C)on3)CC2)n1 | -1.355% | -0.8996% | -5.135%
CS(=O)(=O)N1CCCC12CCCN(S(=O)(=O)c1ccc(F)c(F)c1)C2 (stereo unspecified) | -1.724% | 1.366% | 6.15%
O=C(c1cnoc1)N1CCC[C@]2(C[C@H](Oc3ncccc3F)CO2)C1 | 2.549% | -0.1944% | -5.62%
O=C(c1cccc(C2CCNC2)c1)N1CCC(N2CCC(O)CC2)CC1 (stereo unspecified) | -2.991% | 1.283% | -4.958%
CCCNC(=O)CCNC(=O)Cc1nc(-c2ccco2)oc1C | -2.487% | 4.939% | -23.83%
Cc1ccccc1OCC(O)CN1CCC(Cn2cccn2)CC1 (stereo unspecified) | 8.688% | 0.7771% | -13.02%
CCc1[nH]ncc1C(=O)N1CCCN(Cc2cnn(C)c2)CC1 | 0.7037% | 1.891% | 8.702%
COCc1ncc(CN2CCC(Oc3ccccc3C)CC2)cn1 | 1.731% | 5.492% | -19.92%
COc1ccc(C[C@H]2CN(C3CCOCC3)CC[C@@H]2OCC2CC2)cc1 | 9.297% | 5.552% | -17.84%
COCc1ccccc1C(=O)N(C)Cc1ncc(C)c(OC)c1C | -2.685% | -5.853% | -5.655%
CC(C)c1nc(CS(=O)(=O)Cc2noc(C3CC3)n2)cs1 | 0.5415% | 12.47% | 2.486%
O=C(NC1CCCN(CCCc2ccccc2)C1)c1ccncc1 (stereo unspecified) | 0.4402% | 5.687% | -7.048%
CNc1cncc(C2CCCN2C(=O)CCn2ccnc2C(C)C)n1 (stereo unspecified) | -4.818% | 1.011% | -143%
Cc1nn(CC(=O)N2CCN(c3cnccn3)CC2)c(C)c1Cl | -1.319% | 1.022% | -7.935%
CC(C)c1nn(C)c(Cl)c1CNCC(=O)N1CCN(C)CC1 | -1.211% | 1.464% | 33.21%
Brc1cccnc1OC1CCNCC1 | -3.832% | 1.989% | 2.704%
COc1ccc(NC(=O)NCC(O)c2ccc(F)cc2F)c(OC)c1 (stereo unspecified) | -1.267% | 1.282% | 10.49%
CCOC(=O)c1ccc(CNC(=O)c2ccon2)o1 | 1.349% | -0.6711% | 2.86%
Cc1nc2n(n1)CC(Nc1ccnc(-c3ccccc3)n1)CC2 (stereo unspecified) | 3.661% | 6.414% | -3.53%
COc1cccc(N2CC3(CCN(Cc4nccn4C)C3)CC2=O)c1 (stereo unspecified) | -3.412% | -0.9323% | 4.646%
CCOC(=O)CN(C)Cc1cnc(C)s1 | -4.241% | 0.9661% | -5.446%
CC(C)O[C@H]1CN(Cc2cnc3c(-c4ccccc4)cnn3c2)C[C@@H]1O | -2.139% | 6.079% | -5.012%
Cc1csc(N2CCC(NCC3(O)CCc4ccccc43)CC2)n1 (stereo unspecified) | -2.328% | 5.499% | 2.201%
O=C(CNc1ccc(OC2CCOC2)cc1)NCc1cccs1 (stereo unspecified) | -4.132% | -3.894% | -6.486%
Cc1nc(CO[C@@H]2CN(Cc3cccnc3)[C@@H]3COC[C@@H]32)cs1 | -0.3003% | 2.326% | -17.28%
Cc1nn(C)cc1Cn1c(=O)c(C)nc2ccccc21 | -3.337% | 1.326% | -6.537%
Cc1nnc(NC(=O)NC(C)C(=O)NC2CCCC2)s1 (stereo unspecified) | -0.000006% | 3.279% | -1.392%
CC1CCc2nc(O)c(C(=O)NCc3ccccc3F)cc2C1 (stereo unspecified) | 9.932% | 2.694% | 0.7431%
CSCCC1c2nc[nH]c2CCN1Cc1cc(Cl)ccc1O (stereo unspecified) | 1.243% | 7.208% | -21.2%
COc1ccc(CNCC2CC2)cc1F | 8.443% | -1.048% | -13.71%
CCC(CN1CCCC1)n1cncc1-c1cnn(-c2ccccc2)c1 (stereo unspecified) | -0.06528% | 1.418% | -14.32%
Cc1nc(C(=O)N(C)CC(=O)N(C)C)nn1-c1ccccc1C(C)C | -1.938% | 4.826% | 18.44%
Cn1nc(C#N)c2c1CN(C(=O)c1ccco1)CCC2 | 50.07% | -9.232% | 2.448%
CNC(=O)CN1C(=O)CCC12CCCN(Cc1ccccn1)C2 (stereo unspecified) | -4.931% | 5.3% | -11.34%
O=C(COc1ccc(Cl)cc1)N1CCN(c2cnccn2)CC1 | -3.578% | 1.326% | -30.42%
COc1ccc(OC)c(CN(Cc2ccco2)Cc2[nH]cnc2C)c1 | -6.914% | 0.4525% | -22.51%
CN1CC[C@H](c2ccccc2)[C@@H]2[C@H]1CCCCN2C(=O)c1cnccn1 | -0.5853% | -2.457% | -4.905%
Cc1ccc(NC(=O)c2cnc(N3CCN(C)CC3)nc2C)cc1C | 0.6221% | 2.528% | -5.414%
CC(C)CCN1Cc2c(C(=O)O)ncn2-c2ccccc2S1(=O)=O | -3.749% | -6.089% | 12.34%
Cc1ccc(C2(O)CCN(C(=O)c3cccc(S(C)(=O)=O)c3)CC2)nc1 | -0.311% | 2.045% | -18.9%
CC1=CCN(S(=O)(=O)c2cccc(C(=O)N3CCCN(C)CC3)c2)CC1 | -10.84% | 3.198% | 1.967%
Cc1cc(Br)ccc1NCC(=O)Nc1cc(C(C)(C)C)no1 | -6.299% | 5.798% | 8.297%
CC[C@H](C)Nc1nccc(-c2cnc3sc(C)c(C)n3c2=O)n1 | -2.28% | -1.83% | -14.33%
COc1ncccc1CNC(=O)c1cc(Cl)ccn1 | -4.278% | 0.006693% | -13.62%
c1nc(N2CCCC2Cn2cncn2)c2ccsc2n1 (stereo unspecified) | -4.222% | -5.523% | -5.654%
CO[C@H]1CCN(c2ncccn2)[C@H]1Cc1ccccc1 | -2.403% | 0.4377% | 2.672%
O=C(O)COc1ccccc1CN1CCCC1c1ccncn1 (stereo unspecified) | - | 0.251% | -5.699%
Cc1nc(C2CCCN2C(=O)c2cnns2)no1 (stereo unspecified) | 1.415% | 7.361% | 17.92%
Cc1ccc(C(=O)N2CCc3c(CNc4ncccn4)cncc3C2)o1 | 1.152% | 2.335% | -14.31%
CN(C)c1ncc(NS(=O)(=O)c2ccc(OC(F)(F)F)cc2)cn1 | 3.732% | -3.446% | -7.228%
CC(=O)c1ccc(C(=O)N2C[C@@H](CN3CCCC3)[C@@H](CO)C2)cc1 | -3.476% | 0.2002% | -9.449%
O=C(CCNC(=O)c1ccccc1)Nc1ccncc1 | -6.886% | 7.115% | -10.55%
Cc1cc(CN(C)C(=O)c2ccc(N(C)C)nc2)no1 | -5.185% | 3.548% | -29.21%
CC(C)C(=O)NC1COC2(CCN(Cc3cccnc3)CC2)C1 (stereo unspecified) | -6.71% | 2.983% | -14.36%
Cc1n[nH]c(C)c1CN(C)C(C(=O)O)c1c(F)cccc1OC(C)C (stereo unspecified) | -1.192% | 3.369% | -3.268%
Cc1cn2c(n1)CCC(NC(=O)c1cc(C3CC3)[nH]n1)C2 (stereo unspecified) | -4.35% | -0.5567% | -11.28%
FCCOc1cccc(NCc2c[nH]nc2-c2cccnc2)c1 | -2.259% | 8.81% | -4.619%
O=C(c1cocn1)N1CCC2(CC1)CC(OCC1CC1)CO2 (stereo unspecified) | -0.5489% | 0.4229% | -3.53%
CC(C)(C)C1SCC(=O)Nc2c1c(O)nn2C1CCCCC1 (stereo unspecified) | 1.159% | 0.4258% | 0.02914%
O=C(NCCn1ccnc1-c1cc2n(n1)CCNC2)c1ccc(F)cc1 | 2.687% | 4.194% | 1.165%
Cn1cccc1C(=O)N1CCc2ncnc(N3CCOCC3)c2CC1 | -4.625% | 1.327% | 0.6364%
CC(=O)NCc1noc2c1CN(Cc1cccs1)CC2 | 3.973% | 4.64% | -1.435%

For reference, 6 entries once more:

compound,A,B,C
CC1=CCN(S(=O)(=O)c2cccc(C(=O)N3CCCN(C)CC3)c2)CC1,-10.84%,3.198%,1.967%
Cc1nc2n(n1)CC(Nc1ccnc(-c3ccccc3)n1)CC2 (stereo unspecified),3.661%,6.414%,-3.53%
Cc1nn(CC(=O)N2CCN(c3cnccn3)CC2)c(C)c1Cl,-1.319%,1.022%,-7.935%
FCCOc1cccc(NCc2c[nH]nc2-c2cccnc2)c1,-2.259%,8.81%,-4.619%
CN1CC[C@H](c2ccccc2)[C@@H]2[C@H]1CCCCN2C(=O)c1cnccn1,-0.5853%,-2.457%,-4.905%
Cc1nc(C(=O)N(C)CC(=O)N(C)C)nn1-c1ccccc1C(C)C,-1.938%,4.826%,18.44%